We go through 8 compounds from patent US20080175801A1, “Stable peroxide containing personal care compositions” (The Procter & Gamble Company, priority 2007, published 2008).

The nature of this series: Chemiluminescence assay (luminol or L-012) of Relative Radical Forming Potential of metals with peroxide. Conditions: for Relative Radical Forming Potential (RRFP): % increase of chemiluminescence signal vs. control, sum over 10 ug/ml to 0.0001 ug/ml of metal; for RRFPI (RRFP index relative to Co = 100): assigned 100.

As to `[Cr]` [Cr, Chromium], the “Relative Radical Forming Potential (RRFP)” value came out at 8.92% and the “RRFPI (RRFP index relative to Co = 100)” value is reported as 1.77.
On the same counts, the results for `[Cu]` [Cu, Copper] are 340.13% and 67.5.
The matching figures for `[Mo]` [Mo, Molybdnenum]: 7.52% and 1.49.
The matching figures for `[Co]` [Co, Cobalt]: 503.87% and 100.
In the case of `[Ni]` [Ni, Nickel], the “Relative Radical Forming Potential (RRFP)” value amounted to 188.64% and the “RRFPI (RRFP index relative to Co = 100)” value is listed as 37.43.
The matching figures for `[Pt]` [Pt, Platinum]: 6.99% and 1.38.
On the same counts, the results for `[Pd]` [Pd, Palladium] are 231.58% and 45.96.
On the same counts, the results for `[Mn+2]` [Mn, Manganese] are 13.95% and 2.76.
